These are yes or no findings as the source states them, for the method shown. Some results given as binding are weak or reduced against the parent protein; the word gives no strength.
What was measured:
PD1-His = molecular target: T1, PD1-His (human, UniProt Q15116 25-167, limits assumed); test: ELISA: PD1-His on the plate, graded antibody, HRP-labelled second antibody, OD450
T1 construct: also called hPD-1; not shown: His tag

By UniProt entry, the sequences of proteins in these tests, tags left out. Where a name states a change or a piece, a line headed by the entry shows the natural chain unless it says otherwise. Residues count along the entry.
UniProt Q15116: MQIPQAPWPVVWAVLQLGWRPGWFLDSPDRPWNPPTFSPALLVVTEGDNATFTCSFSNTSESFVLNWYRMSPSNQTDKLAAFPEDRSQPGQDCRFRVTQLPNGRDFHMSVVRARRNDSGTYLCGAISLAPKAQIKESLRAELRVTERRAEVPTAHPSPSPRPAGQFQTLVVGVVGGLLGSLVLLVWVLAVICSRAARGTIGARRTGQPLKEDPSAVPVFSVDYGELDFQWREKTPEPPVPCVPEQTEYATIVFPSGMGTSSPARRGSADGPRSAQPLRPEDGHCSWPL
PD1 on PD1-27 cells (PD1 over-expressed CHO-K1 stable transfected cells): residues 25-288 of Q15116

PD1-Fc-His [1] = molecular target: T2, PD1-Fc-His (UniProt Q15116 25-167, limits assumed); test: Inhibition ELISA: graded antibody pre-incubated with PD1-Fc-His, added to a plate laid with 'PD1-Fc' (so in the source), anti-His-HRP, OD450
T2 construct: not shown: Fc; His tag
Description: (§1) Incubate the gradient diluted antibody and a certain concentration of PD1-Fc-His in advance, then add the mixture to the plate laid with PD1-Fc. Add anti-His-HRP to the plate after incubating and washing. Then perform coloration. Draw up the reaction curve by fitting of readings (see FIG. 7 for results) to calculate the IC50 value.

[2] = molecular target: PD1 on PD1-27 cells (PD1 over-expressed CHO-K1 stable transfected cells) (UniProt Q15116); test: Cell binding: PD1-27 (PD1 over-expressed CHO-K1) cells on the plate, graded antibody, EU-labelled second antibody, fluorescence
[3] = molecular target: recombinant M.fascicularis PD-1 (M.fascicularis) (UniProt B0LAJ3); test: ELISA: protein coated at 0.5 ug/mL, antibody at 0.5 ug/mL, goat anti-human FAB-HRP, OD450
[4] = molecular target: recombinant human PD-1 protein (human) (UniProt Q15116); test: as above
[5] = molecular target: recombinant M.fascicularis PD-1 (M.fascicularis) (UniProt B0LAJ3); test: ELISA, protein coated at 0.5 µg/mL, antibody 0.5 µg/mL, goat anti-human FAB-HRP
[6] = molecular target: recombinant human PD-1 protein (human) (UniProt Q15116); test: as above
PD1-Fc-His [7] = molecular target: T2, PD1-Fc-His; test: Inhibition ELISA: graded antibody pre-incubated with PD1-Fc-His, added to a plate coated with 'PD1-Fc' (so in the source), anti-His-HRP, OD450
Description: as §1, with “enveloped” for “laid”, “2” for “7”

[8] = molecular target: PD1 on PD1-27 cells (PD1 over-expressed CHO-K1 stable transfected cells) (UniProt Q15116); test: Cell binding: PD1-27 (PD1 over-expressed CHO-K1) cells on the plate, graded antibody, anti-mouse-EU, fluorescence
[9] = molecular target: PD1 on PD1-27 cells (PD1 over-expressed CHO-K1 stable transfected cells) (UniProt Q15116); test: Cell inhibition: PD1-27 (PD1 over-expressed CHO-K1) cells, graded antibody together with 'PD1-Fc' (so in the source), anti-Human-EU, fluorescence

Measured: binding

B1: humanized antibody anti-PD-1 (antibody, V domains shown)
VH: EVQLVESGGGLVKPGGSLRLSCAASGFTFSSYTMSWVRQAPGKGLEWVATISNGGSFTYYPDSMKGRFTISRDNSKNTLYLQMSSLRAEDTAVYYCARDSDYYGIFDYWGQGTTVTVSS
VL: DIVMTQSPLSLPVTPGEPASISCRSSKSLLYKDGKTYLNWYLQKPGQSPQLLIYLMSTRASGVPDRFSGSGSGTDFTLKISRVEAEDVGVYYCQQLVEDPFTFGQGTKLEIKR
notes: Human constant regions; also called humanized PD-1 antibody; hup01 (plasmids P3.1GS-hup01-HC / P3.1GS-hup01-LC)
not listed: PD1-Fc-His [7] | [8] | [9]
binds: all other assays above

B2: mouse anti-PD-1 (antibody, V domains shown)
VH: DVKLVESGGGLVKPGGSLKLSCAASGFTFSSYTMSWVRQTPEKRLEWVATISNGGSFTYYPDSMKGRFTISRDNAKNTLYLQMSSLKSEDTAMYYCTRDSDYYGIFDYWGQGTTLTVSS
VL: DIVITQDELSNPVTSGESVSISCRSSKSLLYKDGKTYLNWFLQRPGQSPQLLIYLMSTRASGVSDRFSGSGSGTDFTLEISRVKAEDVGVYYCQQLVEDPFTFGSGTKLEIKR
notes: also called mouse anti-PD-1 monoclonal antibody; mouse PD-1 antibody
binds: PD1-Fc-His [7] | [8] | [9]
